# Measurements as given in US20220378912A1 (Novartis, published 2022).
# Results are given in words; binding and its absence hold for the method and conditions named. Some results given as binding are weak or reduced against the parent protein; the word gives no strength.
# T1: P-selectin fused to immunoglobulin (Psel-Ig) (UniProt P16109 42-771, limits assumed)
# T1 construct: also called spiked P-selectin; not shown: immunoglobulin part of the fusion
# T1 sequence (looked up): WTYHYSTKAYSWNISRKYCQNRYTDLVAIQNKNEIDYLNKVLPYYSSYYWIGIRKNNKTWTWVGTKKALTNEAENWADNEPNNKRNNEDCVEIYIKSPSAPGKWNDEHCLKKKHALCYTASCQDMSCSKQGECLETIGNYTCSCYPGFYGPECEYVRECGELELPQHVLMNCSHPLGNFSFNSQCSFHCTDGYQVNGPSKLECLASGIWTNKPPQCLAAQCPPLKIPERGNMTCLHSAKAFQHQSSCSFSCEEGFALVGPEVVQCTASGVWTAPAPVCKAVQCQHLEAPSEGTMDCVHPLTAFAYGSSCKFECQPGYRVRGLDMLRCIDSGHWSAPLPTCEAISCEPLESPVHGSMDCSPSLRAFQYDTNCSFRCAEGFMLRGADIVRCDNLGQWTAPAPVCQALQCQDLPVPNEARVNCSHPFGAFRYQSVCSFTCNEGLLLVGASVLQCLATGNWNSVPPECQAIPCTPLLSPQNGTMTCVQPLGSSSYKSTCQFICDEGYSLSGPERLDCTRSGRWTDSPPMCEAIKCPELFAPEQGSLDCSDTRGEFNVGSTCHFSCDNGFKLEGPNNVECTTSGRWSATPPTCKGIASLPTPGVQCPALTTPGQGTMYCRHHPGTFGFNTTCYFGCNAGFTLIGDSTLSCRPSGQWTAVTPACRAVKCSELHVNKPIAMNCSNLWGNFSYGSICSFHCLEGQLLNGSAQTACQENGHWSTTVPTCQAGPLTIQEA
# Target: T1, P-selectin fused to immunoglobulin …
# Experiment: SPR competition, ex vivo patient serum with spiked Psel-Ig
binder,measurement,value
"SEG101 (crizanlizumab), humanised monoclonal antibody against human P-selectin (antibody, human IgG2, kappa, V domains shown, also called SelG1; main peak) VH: QVQLVQSGAEVKKPGASVKVSCKVSGYTFTSYDINWVRQAPGKGLEWMGWIYPGDGSIKYNEKFKGRVTMTVDKSTDTAYMELSSLRSEDTAVYYCARRGEYGNYEGAMDYWGQGTLVTVSS VL: DIQMTQSPSSLSASVGDRVTITCKASQSVDYDGHSYMNWYQQKPGKAPKLLIYAASNLESGVPSRFSGSGSGTDFTLTISSLQPEDFATYYCQQSDENPLTFGGGTKVEIKR",binding,binds
